# Source: PubChem BioAssay
# Inconclusive means that the source gave no clear call. Such entries were picked first, then a sample of the others. Where the call is inconclusive, the potency comes from a doubtful curve fit. The source made the active and inactive calls. Unless noted, the limit is not given here; nearly all actives have AC50 up to about 26 µM.
# Columns and labels:
# [1] = growth inhibition of DIPG glioma cells, dose response, cell-based, SU-DIPG-XIII, MIPE5.0, CellTiter-Glo, qHTS (AID 1347064; cut-off not given, nearly all actives have AC50 up to about 23 µM;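 as to AC50: cells exposed to compound for 48 hours before the viability read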); settings: SU-DIPG-XIII viability, CellTiter-Glo ATP luminescence
# [2] = viability loss in pontine glioma line – cell-based, SU-DIPG-XXV, MIPE5.0, CellTiter-Glo, qHTS, dose response (AID 1347065); settings: CellTiter-Glo ATP luminescence;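 also: cells exposed to compound for 48 hours before ATP readout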
# [3] = JHH-DIPG-1 glioma cell viability, MIPE5.0 library, CellTiter-Glo luminescence, qHTS (AID 1347067); settings: JHH-DIPG-1 glioma viability, CellTiter-Glo ATP luminescence;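 also: cells exposed to compound for 48 hours before readout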
# [4] = SU-DIPG-XXV glioma cell viability, MIPE5.0 library, qHTS (AID 1347068; cut-off not given, nearly all actives have IC50 up to about 30 µM;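 as to IC50: cells exposed to compound for 48 hours before viability readout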)
# [5] = SU-DIPG-VI glioma cell viability, MIPE4.0 library, CellTiter-Glo luminescence, qHTS (AID 1347066; cut-off not given, nearly all actives have AC50 up to about 30 µM;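 also: cells exposed to compound for 48 hours before readout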); settings: CellTiter-Glo ATP luminescence
smiles,measurement,setting,value
Cc1ncc(NC(=O)c2ccc(CN3CCN(C)CC3)c(C(F)(F)F)c2)cc1Nc1nccc(-c2cccnc2)n1,AC50,[1],active: 9.34 µM
same,AC50,[2],active: 18.6 µM
same,AC50,[3],inconclusive: 26.3 µM [cytotoxic]
Cc1nnc(C[C@@H]2C=C(c3ccc(Cl)cc3)c3ccccc3-n3c(C)nnc32)o1,AC50,[1],inconclusive: 7.42 µM [cytotoxic]
same,AC50,[2],active: 14.8 µM
same,AC50,[3],active: 18.6 µM
same,IC50,[4],inconclusive: 23.5 µM [cytotoxic]
Nc1ncc(C(=O)NC2CN(C(=O)C3CC3)C2)c2ccc(-c3cccc(F)c3)nc12,outcome,[1],inactive
same,AC50,[2],inconclusive: 0.525 µM
same,AC50,[3],inconclusive: 5.9 µM
same,IC50,[4],inconclusive: 2.63 µM
COc1cc(OC)c(NC(=O)Nc2cc(C)on2)cc1Cl,outcome,[1],inactive
same,outcome,[2],inactive
same,outcome,[5],inactive
same,outcome,[3],inactive
same,IC50,[4],inconclusive: 2.09 µM [cytotoxic]
COc1ccc(C(=O)N2CCN(C(=O)/C=C/c3ccc(Br)cc3)CC2)cc1,AC50,[1],inconclusive: 26.3 µM [cytotoxic]
same,outcome,[2],inactive
same,outcome,[3],inactive
Cn1cc(-c2c[nH]c3ncnc(N4CCOCC4)c23)cn1,outcome,[1],inconclusive
same,outcome,[2],inactive
same,outcome,[3],inactive
COc1c(C)cc(NC(=O)c2nn(Cc3ccc(F)cc3)c3c2CN(C(=O)c2ccc[nH]2)C[C@]3(C)C(N)=O)cc1C,AC50,[1],inconclusive: 0.887 µM
same,outcome,[2],inactive
same,outcome,[3],inactive
same,IC50,[4],inconclusive: 0.000353 µM
CC[C@H](C)[C@@H]([C@@H](CC(=O)N1CCC[C@H]1[C@H](OC)[C@@H](C)C(=O)N[C@@H](Cc1ccccc1)c1nccs1)OC)N(C)C(=O)[C@@H](NC(=O)[C@H](C(C)C)N(C)C)C(C)C,AC50,[1],inconclusive: 0.186 µM [cytotoxic]
same,AC50,[2],inconclusive: 0.00468 µM [cytotoxic]
same,AC50,[3],inconclusive: 0.00934 µM [cytotoxic]
same,IC50,[4],active: 0.00417 µM
Cc1ccc(C(=O)OCc2ccc([C@@H](CN)C(=O)Nc3ccc4cnccc4c3)cc2)c(C)c1,AC50,[1],active: 14.4 µM
same,AC50,[2],active: 9.1 µM
same,AC50,[3],inconclusive: 12.9 µM [cytotoxic]
same,IC50,[4],inconclusive: 16.2 µM [cytotoxic]
O=C1CC(c2c[nH]c3ccc(F)cc23)C(=O)N1 (configuration not stated),outcome,[1],inactive
same,outcome,[2],inactive
same,AC50,[3],inconclusive: 1.66 µM [cytotoxic]
Cc1cc(OCc2nnc(SC3CCCC3)n2-c2cccnc2)ccc1-c1ccc(S(C)(=O)=O)cc1,AC50,[1],inconclusive: 1.05 µM [cytotoxic]
same,AC50,[2],active: 8.33 µM
same,AC50,[3],active: 2.09 µM
same,outcome,[4],inactive
COc1cc(C(=O)NC(N)=Nc2ccc(C)c(NC(=O)c3ccc(-c4ccccc4)cc3)c2)cc(OC)c1OC,AC50,[1],inconclusive: 18.6 µM [cytotoxic]
same,AC50,[2],inconclusive: 26.3 µM [cytotoxic]
same,AC50,[3],inconclusive: 18.6 µM [cytotoxic]
same,IC50,[4],inconclusive: 14.8 µM [cytotoxic]
Cc1nn(C)c(COc2ccc(N3CCN(S(=O)(=O)N(C)C)CC3)cc2)c1-c1cccc2c(CCCOc3cccc4ccccc34)c(C(=O)O)n(CCN3CCOCC3)c12,AC50,[1],active: 18.6 µM
same,AC50,[2],inconclusive: 11.8 µM [cytotoxic]
same,AC50,[3],active: 18.6 µM
NCC1CCN(c2nccc(-c3ccc4ccccc4c3)n2)CC1,AC50,[1],active: 16.6 µM
same,AC50,[2],inconclusive: 13.2 µM [cytotoxic]
same,AC50,[3],active: 10.5 µM
same,IC50,[4],inconclusive: 10.5 µM [cytotoxic]
COc1ncc(Nc2ncc(C(C)N3CCN(S(C)(=O)=O)CC3)cc2-c2nc(C)nc(N)n2)cc1F (configuration not stated),AC50,[1],inconclusive: 1.32 µM [cytotoxic]
same,AC50,[2],active: 0.235 µM
same,AC50,[3],inconclusive: 0.59 µM [cytotoxic]
same,IC50,[4],inconclusive: 0.00417 µM [cytotoxic]
C[C@H]1C[C@@H](n2c(Nc3ccc(OC(F)(F)F)cc3)nc3cc(CCC(=O)O)ccc32)CC(C)(C)C1,AC50,[1],inconclusive: 18.6 µM [cytotoxic]
same,AC50,[2],inconclusive: 37.2 µM [cytotoxic]
same,AC50,[3],inconclusive: 26.3 µM [cytotoxic]
COc1cc(N2CCN(C)CC2)ccc1Nc1ncc2c(n1)N(C)c1ccccc1C(=O)N2C,AC50,[1],inconclusive: 20.9 µM [cytotoxic]
same,AC50,[2],active: 18.6 µM
same,AC50,[3],active: 14.8 µM
same,IC50,[4],inconclusive: 11.8 µM
CCCOc1ccn2c(C(C)=O)cc(-c3ccccc3S(C)(=O)=O)c2c1,AC50,[1],inconclusive: 26.3 µM [cytotoxic]
same,outcome,[2],inactive
same,AC50,[3],inconclusive: 13.2 µM [cytotoxic]
same,outcome,[4],inactive
Nc1cccc2c1CN([C@H]1CCC(=O)NC1=O)C2=O,outcome,[1],inactive
same,AC50,[2],inconclusive: 0.00118 µM [cytotoxic]
same,AC50,[5],inconclusive: 0.00605 µM [cytotoxic]
same,outcome,[3],inactive
same,outcome,[4],inactive
CCn1c(N)c(C(=O)NC)c(=O)c2ccc(C#CC(C)(O)COC)nc21 (configuration not stated),AC50,[1],inconclusive: 16.6 µM [cytotoxic]
same,AC50,[2],inconclusive: 18.6 µM [cytotoxic]
same,outcome,[3],inactive
COc1ccc(CC2c3cc(OC)c(OC)cc3CC[N+]2(C)CCC(=O)OCCCCCOC(=O)CC[N+]2(C)CCc3cc(OC)c(OC)cc3C2Cc2ccc(OC)c(OC)c2)cc1OC (configuration not stated),AC50,[1],inconclusive: 20.9 µM [cytotoxic]
same,AC50,[2],inconclusive: 2.63 µM
same,AC50,[5],inconclusive: 2.07 µM
same,AC50,[3],inconclusive: 9.34 µM [cytotoxic]
same,outcome,[4],inactive
COc1c(N2CCNC(C)C2)c(F)cc2c(=O)c(C(=O)O)cn(C3CC3)c12 (configuration not stated),AC50,[1],inconclusive: 6.61 µM [cytotoxic]
same,outcome,[2],inactive
same,outcome,[5],inactive
same,outcome,[3],inactive
CSc1ccc(C(=O)/C=C/c2cc(C)c(OC(C)(C)C(=O)O)c(C)c2)cc1,AC50,[1],inconclusive: 53.9 µM [cytotoxic]
same,AC50,[2],inconclusive: 0.00215 µM [cytotoxic]
same,AC50,[3],inconclusive: 42.8 µM [cytotoxic]
Fc1ccc(-c2csc3ncnc(NCc4ccc5c(c4)OCO5)c23)cc1,AC50,[1],active: 16.6 µM
same,AC50,[2],inconclusive: 26.3 µM [cytotoxic]
same,AC50,[3],active: 18.6 µM
CN(C)CCN1C(=O)c2cccc3cc(NC(N)=O)cc(c23)C1=O,AC50,[1],inconclusive: 23.5 µM [cytotoxic]
same,AC50,[2],inconclusive: 37.2 µM [cytotoxic]
same,AC50,[3],inconclusive: 14.8 µM [cytotoxic]
same,outcome,[4],inactive
NCC(=O)Nc1cncc(-c2nn3c(=O)cc(N4CCNCC4)nc3s2)c1,AC50,[1],inconclusive: 11.8 µM [cytotoxic]
same,AC50,[2],inconclusive: 0.00118 µM [cytotoxic]
same,AC50,[3],inconclusive: 11.8 µM [cytotoxic]
same,IC50,[4],inconclusive: 0.263 µM
CO[C@H]1/C=C/O[C@@]2(C)Oc3c(C)c(O)c4c(O)c(c(/C=N/N5CCN(C)CC5)c(O)c4c3C2=O)NC(=O)/C(C)=C\C=C\[C@H](C)[C@H](O)[C@@H](C)[C@@H](O)[C@@H](C)[C@H](OC(C)=O)[C@@H]1C,AC50,[1],active: 20.9 µM
same,AC50,[2],inconclusive: 26.3 µM [cytotoxic]
same,AC50,[5],inconclusive: 0.948 µM
same,IC50,[4],inconclusive: 23.5 µM [cytotoxic]
COC(=O)[C@H]1[C@@H](O)[C@@]2(O)c3c(OC)cc(O[C@@H]4O[C@@H]([C@@H](O)CO)CO[C@H]4OC)cc3O[C@@]2(c2ccc(OC)cc2)[C@@H]1c1ccccc1,AC50,[1],inconclusive: 7.42 µM [cytotoxic]
same,AC50,[2],active: 5.25 µM
same,AC50,[3],inconclusive: 5.9 µM [cytotoxic]
CN1C(N)=N[C@](C)(c2cc(NC(=O)c3ccc(F)cn3)ccc2F)CS1(=O)=O,outcome,[1],inactive
same,AC50,[2],inconclusive: 1.18 µM [cytotoxic]
same,outcome,[3],inactive
C[C@H]1CN(C2COC2)CCN1c1ccc(Nc2cc(-c3ccnc(N4CCn5c(cc6c5CC(C)(C)C6)C4=O)c3CO)cn(C)c2=O)nc1,outcome,[1],inactive
same,AC50,[2],inconclusive: 10.5 µM [cytotoxic]
same,outcome,[3],inactive
same,outcome,[4],inactive
CC(C)NCCCn1c(Sc2cc(Cl)cc(Cl)c2)nc2c(N)ncnc21,AC50,[1],inconclusive: 1.66 µM [cytotoxic]
same,AC50,[2],inconclusive: 33.2 µM [cytotoxic]
same,outcome,[3],inactive
same,outcome,[4],inactive
O=C(Nc1nccs1)C(c1cc(F)ccc1O)N1Cc2ccccc2C1=O (configuration not stated),AC50,[1],inconclusive: 0.00263 µM [cytotoxic]
same,outcome,[2],inactive
same,outcome,[3],inactive
same,outcome,[4],inactive
CC(=O)N1CCC(Nc2cc(C(=O)NC[C@H](O)CN3CCc4ccccc4C3)ncn2)CC1,outcome,[1],inactive
same,outcome,[2],inactive
same,AC50,[3],inconclusive: 0.0742 µM [cytotoxic]
Fc1ccc(-c2nc(-c3ccccc3F)[nH]c2-c2ccncc2)cc1,outcome,[1],inactive
same,AC50,[2],inconclusive: 0.00934 µM [cytotoxic]
same,outcome,[3],inactive
NC1CCCN(c2c(/C=C3\SC(=O)NC3=O)cccc2-c2ccccc2)C1 (configuration not stated),outcome,[1],inactive
same,AC50,[2],inconclusive: 23.5 µM [cytotoxic]
same,outcome,[4],inactive
CCc1cc2c(c(OCC(F)(F)F)c(C(=O)NC3CCN(C(=O)CO)CC3)n2C)c(=O)n1CC(=O)c1ccccc1,outcome,[1],inactive
same,outcome,[2],inactive
same,IC50,[4],inconclusive: 9.34 µM [cytotoxic]
O=C(NO)c1cnc(N2C[C@H]3C[C@@H]2CN3c2cc(C(F)(F)F)ccn2)nc1,AC50,[1],active: 1.18 µM
same,AC50,[2],active: 0.742 µM
same,AC50,[3],active: 1.48 µM
same,IC50,[4],inconclusive: 2.63 µM [cytotoxic]
COCCNCc1ccc(-c2cc3nccc(Oc4ccc(NC(=O)C5(C(=O)Nc6ccc(F)cc6)CC5)cc4F)c3s2)nc1,AC50,[1],active: 5.25 µM
same,AC50,[2],active: 4.68 µM
same,IC50,[4],inconclusive: 1.86 µM [cytotoxic]
O=c1sn(-c2cccc3ccccc23)c(=O)n1Cc1ccccc1,AC50,[1],active: 13.2 µM
same,AC50,[2],active: 14.8 µM
same,IC50,[4],inconclusive: 10.5 µM [cytotoxic]

# Given with bars between the fields: part of the list above.
smiles | measurement | setting | value
CN(C)CCN1C(=O)c2cccc3cc(NC(N)=O)cc(c23)C1=O | AC50 | [2] | inconclusive: 37.2 µM [cytotoxic]
same | AC50 | [3] | inconclusive: 14.8 µM [cytotoxic]
same | outcome | [4] | inactive
NCC(=O)Nc1cncc(-c2nn3c(=O)cc(N4CCNCC4)nc3s2)c1 | AC50 | [1] | inconclusive: 11.8 µM [cytotoxic]
same | AC50 | [2] | inconclusive: 0.00118 µM [cytotoxic]
same | AC50 | [3] | inconclusive: 11.8 µM [cytotoxic]
